Measurements reported in PubChem BioAssay AID1224830 (NIAID, 2016)
Here is a random part of about 18,000 deposited reagents. Of all reagents, about 2,900 (16%) got an active call. 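Calls are made per well; low scores hint the gene aids the LPS response, high scores that it dampens it.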 Repeated entries: four replicate wells of each siRNA pool.

Screen: 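Regulators of TLR4 signalling towards TNF-alpha in macrophage-like cells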 (primary screen)
System: human THP-1 monocytic leukaemia cells, TNF dual-luciferase reporter clone, PMA-differentiated to macrophage-like cells
Reagents: siRNA pool against human genes, 50 nM
Duration: LPS for 4 h, given about 3 days after siRNA transfection
Treatment: bacterial LPS (TLR4 ligand), 10 ng/ml
Detection: 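TNF firefly reporter luminescence divided by renilla, normalised to the plate median, then turned into a robust z-score for each replicate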
Reading the numbers: TNF reporter robust z-score: higher = stronger TNF reporter response to LPS
Call rule: 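Each well counts as active if its z-score is over 2.8 or under -1.5; controls are left without a call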

| gene | TNF reporter robust z-score | call |
| --- | --- | --- |
| STAG3L2 | 0.24 | inactive |
| STAG3L2 | 0.32 | inactive |
| STAG3L2 | 0.11 | inactive |
| STAG3L2 | 0.27 | inactive |
| AFM | -0.35 | inactive |
| AFM | -0.1 | inactive |
| AFM | -0.98 | inactive |
| AFM | -0.47 | inactive |
| RPS6KC1 | 0.68 | inactive |
| RPS6KC1 | 0.97 | inactive |
| RPS6KC1 | 0.18 | inactive |
| RPS6KC1 | -0.84 | inactive |
| GARS1 | -0.18 | inactive |
| GARS1 | 1.99 | inactive |
| GARS1 | 1.49 | inactive |
| GARS1 | 2.96 | active |
| TLCD3A | 1.3 | inactive |
| TLCD3A | 1.26 | inactive |
| TLCD3A | -0.87 | inactive |
| TLCD3A | -0.22 | inactive |
| TICAM1 | -0.8 | inactive |
| TICAM1 | -0.56 | inactive |
| TICAM1 | -1.37 | inactive |
| TICAM1 | -1.14 | inactive |
| TBCB | 0.83 | inactive |
| TBCB | 0.65 | inactive |
| TBCB | 0.68 | inactive |
| TBCB | 0.22 | inactive |
| PCOLCE | 0.63 | inactive |
| PCOLCE | 0.41 | inactive |
| PCOLCE | 0.17 | inactive |
| IL4 | -0.63 | inactive |
| IL4 | -0.13 | inactive |
| IL4 | -0.44 | inactive |
| IL4 | -0.4 | inactive |
| MTG2 | -0.71 | inactive |
| MTG2 | -0.27 | inactive |
| MTG2 | 0.18 | inactive |
| TMEM14A | -0.24 | inactive |
| TMEM14A | -0.32 | inactive |
| TMEM14A | -0.19 | inactive |
| TMEM14A | -0.78 | inactive |
| PABPC5 | -1.07 | inactive |
| PABPC5 | -1.04 | inactive |
| PABPC5 | -0.76 | inactive |
| PABPC5 | 0.44 | inactive |
| ANKRD20A2P | -1.29 | inactive |
| ANKRD20A2P | 0.8 | inactive |
| ANKRD20A2P | 1.44 | inactive |
| ANKRD20A2P | 1.09 | inactive |
| PLCG2 | 0.36 | inactive |
| PLCG2 | 0.94 | inactive |
| PLCG2 | 0.78 | inactive |
| PLCG2 | 1.43 | inactive |
| NOD1 | 0.15 | inactive |
| NOD1 | 1.56 | inactive |
| NOD1 | 1.12 | inactive |
| NOD1 | 0.12 | inactive |
| RETREG2 | -0.6 | inactive |
| RETREG2 | -0.61 | inactive |
| RETREG2 | -1.06 | inactive |
| RETREG2 | -0.99 | inactive |
| TMEM51 | 0.03 | inactive |
| TMEM51 | -0.73 | inactive |
| TMEM51 | -0.82 | inactive |
| TMEM51 | -0.91 | inactive |
| PACRG | 1.95 | inactive |
| PACRG | 4.71 | active |
| PACRG | -0.94 | inactive |
| PACRG | -0.01 | inactive |
| GOLGA8A | 1.91 | inactive |
| GOLGA8A | 3.12 | active |
| GOLGA8A | 2.57 | inactive |
| GOLGA8A | 1.14 | inactive |
| ANKRD28 | 0.23 | inactive |
| ANKRD28 | -0.01 | inactive |
| ANKRD28 | 0.08 | inactive |
| ANKRD28 | 0.25 | inactive |
| CLEC6A | 0.87 | inactive |
| CLEC6A | -0.04 | inactive |
| CLEC6A | -0.48 | inactive |
| CLEC6A | -0.33 | inactive |
| NPHP4 | 0.02 | inactive |
| NPHP4 | 0.19 | inactive |
| NPHP4 | 0.16 | inactive |
| NPHP4 | -0.96 | inactive |
| SPATA1 | -0.41 | inactive |
| SPATA1 | -0.02 | inactive |
| SPATA1 | -0.73 | inactive |
| SPATA1 | 3.03 | active |
| MSMB | -0.66 | inactive |
| MSMB | -0.34 | inactive |
| MSMB | 0.05 | inactive |
| MSMB | 0.38 | inactive |
| KATNBL1 | 1.48 | inactive |
| KATNBL1 | 2 | inactive |
| KATNBL1 | 1.18 | inactive |
| KATNBL1 | 3.24 | active |
| FANCI | -0.71 | inactive |
| FANCI | 0.92 | inactive |
| FANCI | -0.09 | inactive |
| FANCI | 0.22 | inactive |
| CHD4 | -1.52 | active |
| CHD4 | -0.34 | inactive |
| CHD4 | -1.4 | inactive |
| CHD4 | -0.63 | inactive |
| ASCL4 | 1.02 | inactive |
| ASCL4 | -0.39 | inactive |
| ASCL4 | 0.02 | inactive |
| ASCL4 | 0.33 | inactive |
